Assay [1] has as its target ITGB1 (UniProt P05556). The assay is described as follows: co-IP; lysates of GSCs (Figure 4A, D, I).
The target of assay [2] is ITGB1 (UniProt P05556). The assay is described as follows: co-IP; lysates of macrophages (Figure 5C).
For another assay, the target named is T1, HDAC7 (UniProt Q8WUI4).
T1 sequence: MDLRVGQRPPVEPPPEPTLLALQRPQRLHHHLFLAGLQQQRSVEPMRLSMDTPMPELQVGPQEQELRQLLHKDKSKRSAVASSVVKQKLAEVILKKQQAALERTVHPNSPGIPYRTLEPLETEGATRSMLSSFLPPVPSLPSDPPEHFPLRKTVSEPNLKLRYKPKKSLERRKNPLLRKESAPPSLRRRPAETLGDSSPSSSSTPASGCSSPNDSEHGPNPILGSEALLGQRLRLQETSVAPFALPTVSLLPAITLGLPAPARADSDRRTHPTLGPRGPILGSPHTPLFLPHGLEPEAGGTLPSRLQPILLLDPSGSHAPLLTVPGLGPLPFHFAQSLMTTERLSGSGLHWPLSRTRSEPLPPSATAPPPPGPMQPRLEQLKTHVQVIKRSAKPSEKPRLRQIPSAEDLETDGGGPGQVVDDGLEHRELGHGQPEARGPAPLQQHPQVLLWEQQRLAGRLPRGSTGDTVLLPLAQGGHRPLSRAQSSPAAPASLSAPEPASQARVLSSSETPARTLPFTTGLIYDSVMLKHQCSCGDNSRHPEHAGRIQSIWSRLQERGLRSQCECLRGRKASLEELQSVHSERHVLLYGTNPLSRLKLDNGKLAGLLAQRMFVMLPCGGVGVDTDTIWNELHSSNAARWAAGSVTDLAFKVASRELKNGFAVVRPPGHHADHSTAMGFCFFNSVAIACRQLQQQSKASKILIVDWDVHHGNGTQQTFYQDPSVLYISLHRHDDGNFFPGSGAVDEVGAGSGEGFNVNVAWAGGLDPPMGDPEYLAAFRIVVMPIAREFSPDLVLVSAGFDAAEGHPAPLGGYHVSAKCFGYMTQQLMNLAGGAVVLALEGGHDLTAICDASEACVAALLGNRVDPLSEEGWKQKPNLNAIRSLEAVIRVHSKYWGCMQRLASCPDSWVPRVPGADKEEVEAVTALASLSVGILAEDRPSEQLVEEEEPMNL
The assay is described as follows: co-IP; lysates of GSC20, in part transfected with the indicated plasmids or vectors (Figure 2B, K, N, Q; TRIM28 knock-down in Figure 2Q).

The chains behind the UniProt entries cited, without tags or fusion partners. Residues count along the entry.
UniProt P05556: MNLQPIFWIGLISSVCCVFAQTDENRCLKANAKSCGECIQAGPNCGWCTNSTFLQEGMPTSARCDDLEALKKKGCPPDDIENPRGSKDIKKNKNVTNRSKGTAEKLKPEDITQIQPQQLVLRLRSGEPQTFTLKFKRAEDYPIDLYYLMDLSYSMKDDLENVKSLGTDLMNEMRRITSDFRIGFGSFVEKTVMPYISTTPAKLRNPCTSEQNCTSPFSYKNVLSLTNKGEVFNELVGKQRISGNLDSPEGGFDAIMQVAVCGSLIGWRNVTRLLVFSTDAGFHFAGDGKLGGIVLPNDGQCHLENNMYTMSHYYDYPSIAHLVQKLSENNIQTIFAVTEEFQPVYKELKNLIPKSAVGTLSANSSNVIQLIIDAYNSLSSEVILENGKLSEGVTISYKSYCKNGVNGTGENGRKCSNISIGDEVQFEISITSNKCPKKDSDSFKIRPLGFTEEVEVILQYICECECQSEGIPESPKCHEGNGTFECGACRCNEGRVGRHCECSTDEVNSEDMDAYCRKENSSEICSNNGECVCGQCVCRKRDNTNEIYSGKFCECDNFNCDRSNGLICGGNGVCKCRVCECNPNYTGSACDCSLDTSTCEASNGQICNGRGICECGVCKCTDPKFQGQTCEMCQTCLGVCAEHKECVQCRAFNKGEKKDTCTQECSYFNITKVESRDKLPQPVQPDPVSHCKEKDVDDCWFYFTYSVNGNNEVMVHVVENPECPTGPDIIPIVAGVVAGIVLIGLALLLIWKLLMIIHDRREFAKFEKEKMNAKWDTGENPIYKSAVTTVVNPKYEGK
UniProt O75592: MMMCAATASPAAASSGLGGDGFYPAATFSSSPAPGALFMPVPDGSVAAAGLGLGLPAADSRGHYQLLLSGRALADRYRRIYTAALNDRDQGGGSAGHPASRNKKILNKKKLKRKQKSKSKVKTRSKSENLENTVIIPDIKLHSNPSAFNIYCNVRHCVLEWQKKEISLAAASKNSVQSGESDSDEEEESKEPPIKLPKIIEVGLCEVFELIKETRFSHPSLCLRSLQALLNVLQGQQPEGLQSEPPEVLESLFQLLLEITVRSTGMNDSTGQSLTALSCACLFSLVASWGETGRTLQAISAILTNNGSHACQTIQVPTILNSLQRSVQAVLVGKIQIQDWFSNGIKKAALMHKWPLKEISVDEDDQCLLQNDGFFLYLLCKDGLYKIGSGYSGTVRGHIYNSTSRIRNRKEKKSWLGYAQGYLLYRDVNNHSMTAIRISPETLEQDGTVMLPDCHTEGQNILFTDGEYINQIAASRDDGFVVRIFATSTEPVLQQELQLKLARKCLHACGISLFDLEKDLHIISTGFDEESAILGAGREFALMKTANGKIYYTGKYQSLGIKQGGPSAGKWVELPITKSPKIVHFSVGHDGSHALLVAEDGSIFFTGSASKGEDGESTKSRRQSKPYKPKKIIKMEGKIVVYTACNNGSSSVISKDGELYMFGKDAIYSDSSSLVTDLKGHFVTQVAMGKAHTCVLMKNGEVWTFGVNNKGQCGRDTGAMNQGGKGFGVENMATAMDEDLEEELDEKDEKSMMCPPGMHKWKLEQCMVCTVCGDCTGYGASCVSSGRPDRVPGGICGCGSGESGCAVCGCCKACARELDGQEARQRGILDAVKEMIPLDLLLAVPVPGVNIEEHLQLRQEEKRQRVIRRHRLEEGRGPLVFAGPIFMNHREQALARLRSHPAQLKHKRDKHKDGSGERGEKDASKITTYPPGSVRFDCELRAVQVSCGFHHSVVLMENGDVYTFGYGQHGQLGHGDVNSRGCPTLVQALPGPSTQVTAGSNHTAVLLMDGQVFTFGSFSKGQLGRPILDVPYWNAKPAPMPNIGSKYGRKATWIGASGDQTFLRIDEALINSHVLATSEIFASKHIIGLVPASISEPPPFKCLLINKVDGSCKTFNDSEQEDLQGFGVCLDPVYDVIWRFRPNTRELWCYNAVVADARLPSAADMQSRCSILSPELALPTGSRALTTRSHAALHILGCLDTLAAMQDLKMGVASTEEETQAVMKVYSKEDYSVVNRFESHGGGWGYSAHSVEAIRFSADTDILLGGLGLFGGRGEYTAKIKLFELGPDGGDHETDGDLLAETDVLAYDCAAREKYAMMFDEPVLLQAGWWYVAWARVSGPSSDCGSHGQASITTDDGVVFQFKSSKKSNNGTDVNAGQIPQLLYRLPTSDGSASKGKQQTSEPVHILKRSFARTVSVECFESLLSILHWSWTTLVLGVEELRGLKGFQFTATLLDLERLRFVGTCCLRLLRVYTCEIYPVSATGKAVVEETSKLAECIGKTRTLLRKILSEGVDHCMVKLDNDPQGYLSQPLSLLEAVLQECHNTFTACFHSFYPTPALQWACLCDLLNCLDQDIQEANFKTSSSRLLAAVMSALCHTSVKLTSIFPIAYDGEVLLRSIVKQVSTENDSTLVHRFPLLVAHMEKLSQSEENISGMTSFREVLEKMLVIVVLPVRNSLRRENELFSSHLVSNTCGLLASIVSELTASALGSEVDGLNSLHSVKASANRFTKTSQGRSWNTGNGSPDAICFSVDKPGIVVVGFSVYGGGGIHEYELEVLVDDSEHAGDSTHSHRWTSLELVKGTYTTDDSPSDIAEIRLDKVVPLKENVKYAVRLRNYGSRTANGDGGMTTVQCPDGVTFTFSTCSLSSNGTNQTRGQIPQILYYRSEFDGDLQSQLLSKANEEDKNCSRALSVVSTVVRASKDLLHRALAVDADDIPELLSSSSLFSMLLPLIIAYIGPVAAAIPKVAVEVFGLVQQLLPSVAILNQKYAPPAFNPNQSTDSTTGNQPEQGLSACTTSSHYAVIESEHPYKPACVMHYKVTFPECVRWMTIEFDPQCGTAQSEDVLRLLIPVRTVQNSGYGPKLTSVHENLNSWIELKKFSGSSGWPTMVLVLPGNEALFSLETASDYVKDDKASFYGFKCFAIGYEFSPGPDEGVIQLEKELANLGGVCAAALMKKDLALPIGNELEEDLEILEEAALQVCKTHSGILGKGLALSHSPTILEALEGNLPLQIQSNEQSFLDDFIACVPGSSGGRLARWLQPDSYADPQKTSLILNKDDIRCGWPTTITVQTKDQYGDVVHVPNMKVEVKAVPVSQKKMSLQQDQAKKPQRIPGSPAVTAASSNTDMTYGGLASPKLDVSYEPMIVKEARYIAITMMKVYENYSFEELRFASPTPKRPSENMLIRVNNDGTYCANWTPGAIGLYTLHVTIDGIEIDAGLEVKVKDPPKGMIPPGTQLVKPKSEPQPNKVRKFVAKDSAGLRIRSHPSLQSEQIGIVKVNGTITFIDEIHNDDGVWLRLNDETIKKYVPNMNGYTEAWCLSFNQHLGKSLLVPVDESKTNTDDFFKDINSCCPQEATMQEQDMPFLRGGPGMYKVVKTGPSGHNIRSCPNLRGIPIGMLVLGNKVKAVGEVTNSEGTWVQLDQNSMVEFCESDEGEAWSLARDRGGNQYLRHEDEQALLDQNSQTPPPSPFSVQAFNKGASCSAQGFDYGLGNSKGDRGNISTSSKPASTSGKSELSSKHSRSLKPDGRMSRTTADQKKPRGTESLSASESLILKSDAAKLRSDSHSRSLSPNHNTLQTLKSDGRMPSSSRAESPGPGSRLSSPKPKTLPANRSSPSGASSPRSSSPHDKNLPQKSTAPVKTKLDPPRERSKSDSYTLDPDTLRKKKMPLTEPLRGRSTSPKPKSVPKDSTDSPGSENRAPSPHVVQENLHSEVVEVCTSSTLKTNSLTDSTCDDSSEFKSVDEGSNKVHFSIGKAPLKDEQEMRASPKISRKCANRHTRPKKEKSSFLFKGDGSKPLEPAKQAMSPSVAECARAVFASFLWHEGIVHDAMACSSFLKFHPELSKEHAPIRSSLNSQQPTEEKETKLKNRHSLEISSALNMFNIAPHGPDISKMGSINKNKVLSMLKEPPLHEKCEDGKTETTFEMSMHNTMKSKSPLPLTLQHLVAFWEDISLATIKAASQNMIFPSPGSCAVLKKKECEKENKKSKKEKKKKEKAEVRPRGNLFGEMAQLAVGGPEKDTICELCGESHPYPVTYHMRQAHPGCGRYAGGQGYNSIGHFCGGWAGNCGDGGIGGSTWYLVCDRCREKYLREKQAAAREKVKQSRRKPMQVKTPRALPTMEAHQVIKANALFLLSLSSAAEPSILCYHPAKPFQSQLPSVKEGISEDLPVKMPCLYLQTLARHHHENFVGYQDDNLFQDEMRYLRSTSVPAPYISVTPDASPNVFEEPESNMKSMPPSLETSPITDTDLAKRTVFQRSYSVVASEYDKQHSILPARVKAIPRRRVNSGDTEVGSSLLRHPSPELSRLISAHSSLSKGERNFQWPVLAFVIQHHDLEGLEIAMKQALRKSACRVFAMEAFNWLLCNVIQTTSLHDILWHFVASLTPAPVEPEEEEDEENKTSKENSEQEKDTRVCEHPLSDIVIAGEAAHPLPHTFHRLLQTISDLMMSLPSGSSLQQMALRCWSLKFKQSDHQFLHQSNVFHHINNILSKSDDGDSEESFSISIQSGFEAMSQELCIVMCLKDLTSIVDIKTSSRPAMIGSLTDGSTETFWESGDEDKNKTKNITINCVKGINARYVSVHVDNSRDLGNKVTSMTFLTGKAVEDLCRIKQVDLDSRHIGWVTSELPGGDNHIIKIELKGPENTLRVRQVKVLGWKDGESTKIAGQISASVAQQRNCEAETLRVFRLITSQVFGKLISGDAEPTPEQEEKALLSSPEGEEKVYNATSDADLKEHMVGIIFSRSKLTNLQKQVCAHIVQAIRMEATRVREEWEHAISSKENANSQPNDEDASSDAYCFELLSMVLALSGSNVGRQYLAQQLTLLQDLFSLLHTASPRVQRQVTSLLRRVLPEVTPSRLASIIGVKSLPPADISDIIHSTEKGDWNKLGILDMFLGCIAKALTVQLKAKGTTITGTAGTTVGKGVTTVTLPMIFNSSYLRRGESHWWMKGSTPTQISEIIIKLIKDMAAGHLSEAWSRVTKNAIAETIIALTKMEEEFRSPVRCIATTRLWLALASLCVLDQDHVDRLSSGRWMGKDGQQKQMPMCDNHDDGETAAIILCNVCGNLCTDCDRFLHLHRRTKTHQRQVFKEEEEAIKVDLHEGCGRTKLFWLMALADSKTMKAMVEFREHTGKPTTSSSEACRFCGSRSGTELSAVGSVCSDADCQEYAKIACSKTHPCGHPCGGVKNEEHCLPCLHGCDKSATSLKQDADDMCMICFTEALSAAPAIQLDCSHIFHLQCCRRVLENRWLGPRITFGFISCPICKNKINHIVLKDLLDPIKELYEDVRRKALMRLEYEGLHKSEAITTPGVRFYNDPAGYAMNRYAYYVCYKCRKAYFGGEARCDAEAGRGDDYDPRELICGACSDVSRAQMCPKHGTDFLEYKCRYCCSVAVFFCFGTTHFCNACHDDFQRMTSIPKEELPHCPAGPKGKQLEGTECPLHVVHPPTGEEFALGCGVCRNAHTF
UniProt P55854, residues 1-92: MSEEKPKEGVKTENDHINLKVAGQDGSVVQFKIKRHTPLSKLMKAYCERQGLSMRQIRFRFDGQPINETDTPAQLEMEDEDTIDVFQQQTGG
UniProt Q13263: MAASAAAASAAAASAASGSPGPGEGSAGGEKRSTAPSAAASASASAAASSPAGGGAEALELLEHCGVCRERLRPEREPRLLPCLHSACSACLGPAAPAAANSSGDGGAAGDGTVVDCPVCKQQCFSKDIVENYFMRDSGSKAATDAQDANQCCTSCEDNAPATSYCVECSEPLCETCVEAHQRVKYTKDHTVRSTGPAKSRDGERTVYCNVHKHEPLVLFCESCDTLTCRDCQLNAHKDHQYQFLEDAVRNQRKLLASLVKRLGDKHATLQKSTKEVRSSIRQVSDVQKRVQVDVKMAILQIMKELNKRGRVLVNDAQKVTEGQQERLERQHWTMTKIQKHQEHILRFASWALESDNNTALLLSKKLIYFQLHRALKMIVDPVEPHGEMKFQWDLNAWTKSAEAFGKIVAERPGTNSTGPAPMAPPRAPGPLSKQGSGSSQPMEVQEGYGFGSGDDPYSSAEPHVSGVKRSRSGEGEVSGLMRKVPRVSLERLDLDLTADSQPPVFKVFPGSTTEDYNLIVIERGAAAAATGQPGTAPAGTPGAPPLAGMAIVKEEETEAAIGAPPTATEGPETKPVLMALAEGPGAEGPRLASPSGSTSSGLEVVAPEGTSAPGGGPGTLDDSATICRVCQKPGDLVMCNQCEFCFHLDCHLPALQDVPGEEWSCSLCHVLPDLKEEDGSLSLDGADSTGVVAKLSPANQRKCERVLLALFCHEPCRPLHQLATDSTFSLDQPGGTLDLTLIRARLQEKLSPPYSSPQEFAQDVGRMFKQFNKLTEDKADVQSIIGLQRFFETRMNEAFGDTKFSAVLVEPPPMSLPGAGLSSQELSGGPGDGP

These results are taken from paper PMC11610139.

These are yes or no findings as the source states them, for the method shown. In cells and extracts the contact can be indirect. Some entries that bind do so weakly or less than the wild type.

Consider “LGALS3 (from UniProt P17931 1-250) (ligand)”, for which the binding entry in the assay with ITGB1 [1] and with ITGB1 [2] was “binds” in each case.
On to “MYCBP2 (from UniProt O75592 1-4678) (enzyme)”, for which the binding entry with HDAC7 is reported as “binds”.
As to SUMO3 (from UniProt P55854 1-92), the binding result with HDAC7 is recorded as “binds”.
In the case of “TRIM28 (from UniProt Q13263 1-835) (enzyme)”, the binding result with HDAC7 is on record as “binds”.
